Results from article PMC7819943, “Rice protein-binding microarrays: a tool to detect cis-acting elements near promoter regions in rice”.
The other results are listed elsewhere or left out.

Molecular target: T1, OsSMF1 (Oryza sativa, UniProt Q6ZLB0 1-436)
T1 sequence: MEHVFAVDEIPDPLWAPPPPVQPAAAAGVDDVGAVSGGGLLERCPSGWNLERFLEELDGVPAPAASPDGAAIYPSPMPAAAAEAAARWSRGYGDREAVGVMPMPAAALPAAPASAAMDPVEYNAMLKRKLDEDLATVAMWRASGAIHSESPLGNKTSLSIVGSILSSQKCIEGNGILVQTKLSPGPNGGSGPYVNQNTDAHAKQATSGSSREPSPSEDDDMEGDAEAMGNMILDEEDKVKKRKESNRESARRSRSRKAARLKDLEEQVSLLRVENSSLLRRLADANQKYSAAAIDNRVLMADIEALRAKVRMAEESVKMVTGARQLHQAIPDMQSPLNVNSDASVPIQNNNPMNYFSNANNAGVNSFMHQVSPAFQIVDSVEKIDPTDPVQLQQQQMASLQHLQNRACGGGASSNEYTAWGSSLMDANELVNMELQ
Experiment: protein-binding microarray (RPBM); PBS, 2% BSA, 51.3 ng/ul salmon testes DNA, 50 uM zinc acetate, 200 nM TF, 25 C, 1 h; high values mean tight binding
Details: protein: recombinant; tags: N-terminal polyhistidine and DsRed monomer fusion (pET32a); chain copies: 2; label: CyDye5-dUTP incorporated in the synthesized complementary strand; 3' TTTTT single-stranded linker to array surface; dsDNA, one strand shown
Procedure, shortened: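 Ni–NTA purification followed expression in E. coli BL21-CodonPlus of transcription factors fused N-terminally to a polyhistidine tag and DsRed. At 200 nM in PBS with 2% BSA, salmon testes DNA and 50 µM zinc acetate, the protein was incubated for 1 h at 25 °C with a custom Agilent array that had been primer-extended with Cy5-dUTP and blocked with 2% BSA. After washing, the array was read on an Axon 4000B scanner. The binding signal is per-feature fluorescence intensity in arbitrary units.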

Sequence | binding signal
CGAGGTGAGGCGGAGGGGAGGCAGAGGGGTAGAGGAGGGTCGGAGTCACCTAGTGCAG | 5260 fluorescence intensity (a.u.)
GGTGTATATACATGTATTTTAGTCCCCAAACCTGAGATGACGGAGTCACCTAGTGCAG | 4120 fluorescence intensity (a.u.)
GGGAGAGTTAGTTAGTTGAGGTGGTTACGCGTCGGCGGCGCGGAGTCACCTAGTGCAG | 5150 fluorescence intensity (a.u.)
AAACACTCCCTAACCACCTGTTCCAAGCACTGGCACACCCCGGAGTCACCTAGTGCAG | 3260 fluorescence intensity (a.u.)
AGCTTCGTCGGCGGCGATGGCGGCGGCGGCGGCGCTGTGGCGGAGTCACCTAGTGCAG | 28000 fluorescence intensity (a.u.)
GGGCTCCCTCCACCGCCGCCTCCGCCACCGCCTCGCCGCCCGGAGTCACCTAGTGCAG | 3150 fluorescence intensity (a.u.)
ACTGAACTGGTCACTGTCATTCATTTTCTTAAGCTGCAATCGGAGTCACCTAGTGCAG | 3750 fluorescence intensity (a.u.)
TGGCCCCTTGACACGTGGATCCACACCCCATGGTTCAGGCCGGAGTCACCTAGTGCAG | 18000 fluorescence intensity (a.u.)
GGGAGATTTGTAGTGCCGTGATAATTATGATGCCGCCAAACGGAGTCACCTAGTGCAG | 3820 fluorescence intensity (a.u.)
TAGCAATAGTTACATATTTAATCTCATGCAAGTATACAACCGGAGTCACCTAGTGCAG | 23600 fluorescence intensity (a.u.)
GACGCAATGTGTGTATGACAGGTGAGACCATATGTTAATACGGAGTCACCTAGTGCAG | 3180 fluorescence intensity (a.u.)
CGGATTGGGGTAGTGGAGCATCTAGTGGCATCATCCGTAGCGGAGTCACCTAGTGCAG | 3600 fluorescence intensity (a.u.)
CTAAGCAAGCTATATGCTTATATGGAAGAGAGAGATAGGACGGAGTCACCTAGTGCAG | 3220 fluorescence intensity (a.u.)
GAAGTGTCCATATTGAGTCATTTGTCCATTTGCCCAGGCACGGAGTCACCTAGTGCAG | 4960 fluorescence intensity (a.u.)
TTATGTGGTTGTTTAAATCCACGTAGCCATCACGCATGAACGGAGTCACCTAGTGCAG | 6010 fluorescence intensity (a.u.)
TTTGCCATGTAGACGTCACGTCAGCTTAAATCGTTGTTCACGGAGTCACCTAGTGCAG | 16600 fluorescence intensity (a.u.)
ATCCTTCATTATGTTAGAGTACCACATGGGAAGTCGAGACCGGAGTCACCTAGTGCAG | 3750 fluorescence intensity (a.u.)
CACAACTACGTAGACGGGCGTTTGCGGCCGAAAATTTGACCGGAGTCACCTAGTGCAG | 3730 fluorescence intensity (a.u.)
ACCCGTGGGTATAAAAGCCTAGCGGTAAGTTGCTATAGAGCGGAGTCACCTAGTGCAG | 37600 fluorescence intensity (a.u.)
TTAGCCAAGTTGTTATGGAAGTCATGAGGCAGCTTGAAGGCGGAGTCACCTAGTGCAG | 3700 fluorescence intensity (a.u.)
CGATTCGACGCCCTCCTCGTCTGCTGAATTCCTTCGATTCCGGAGTCACCTAGTGCAG | 3310 fluorescence intensity (a.u.)
CGACCGTACGTACGTGGATAATATGCAATGCATATGCATTCGGAGTCACCTAGTGCAG | 4580 fluorescence intensity (a.u.)
CGAGTGGCCGCGGGCGGGCTCCGACGACGTGGGCGAGTGGCGGAGTCACCTAGTGCAG | 4120 fluorescence intensity (a.u.)
GTGTATGCCACGTAGGACTAAAACTGCTCCGGATTGAGGGCGGAGTCACCTAGTGCAG | 17800 fluorescence intensity (a.u.)
ACCACTAAATATTCTTAAATGATTATATTAAAATGAGCATCGGAGTCACCTAGTGCAG | 21100 fluorescence intensity (a.u.)
CTGCTCCCGTATAATTTATTTCGTGCGTGCGTGTTTAATTCGGAGTCACCTAGTGCAG | 4540 fluorescence intensity (a.u.)
GTTTTAGGATATATCAAATCCGATTCTAAATTGCTACTCCCGGAGTCACCTAGTGCAG | 3420 fluorescence intensity (a.u.)

Sequence | binding signal
GGCTATATGAGGAGACGCTCGCGATAAACCCTAGCTCCACCGGAGTCACCTAGTGCAG | 26000 fluorescence intensity (a.u.)
ATTGGCTAGCTTGTACTCCAGCATGGATTATGCATGTGTTCGGAGTCACCTAGTGCAG | 3250 fluorescence intensity (a.u.)
CAGCAACCGAGGTGCCTTCGTCAGCTTCCAAAGAAGCTACCGGAGTCACCTAGTGCAG | 5030 fluorescence intensity (a.u.)
TTGGTTCTCTGTCACGTCAAGTGCAACGAACGGCACGTCTCGGAGTCACCTAGTGCAG | 4330 fluorescence intensity (a.u.)
CTATTTTCTCTTGTCCACGTCAGCAAAATAAGTGTTATATCGGAGTCACCTAGTGCAG | 16600 fluorescence intensity (a.u.)
CATACTCCTAGAAAATGACAAGTCAGCCTCTTGCAATCACCGGAGTCACCTAGTGCAG | 5230 fluorescence intensity (a.u.)
GTCCACATTAGTAATACGCGTCACACACACGAGGAAATTACGGAGTCACCTAGTGCAG | 4120 fluorescence intensity (a.u.)
CCTACACACTCGACAATTGCCAAGTCAGAAAGCAATATACCGGAGTCACCTAGTGCAG | 4200 fluorescence intensity (a.u.)
GTGAGCCCACATGTCATCCTTTATTCCTCCTCCCTCTCTCCGGAGTCACCTAGTGCAG | 3210 fluorescence intensity (a.u.)
AAGAATGCCATGTACACTACTCTTTCTGAGCTTGTGCAAGCGGAGTCACCTAGTGCAG | 4760 fluorescence intensity (a.u.)
TATTATCTGCTGGGTACTCTCTGGTCGCACCTGCGTGGCTCGGAGTCACCTAGTGCAG | 3540 fluorescence intensity (a.u.)
AAATCTGACCGACTGCCACCGTGCCGCCCGTGATGAACACCGGAGTCACCTAGTGCAG | 3720 fluorescence intensity (a.u.)
CCCTCCGTGGTATATATCCACGTCTCCCTTAAACGCAACCCGGAGTCACCTAGTGCAG | 4060 fluorescence intensity (a.u.)
CTACAATGAATTAAGGTGCAAACGTGGAGGATGAAACTAACGGAGTCACCTAGTGCAG | 4130 fluorescence intensity (a.u.)
AGACATTATTTATAACTACGCACGTGGGCAAGTACTTATCCGGAGTCACCTAGTGCAG | 4690 fluorescence intensity (a.u.)
ATTTATCCACGTCATCACGATTTACTCATGAGTACTTATGCGGAGTCACCTAGTGCAG | 17700 fluorescence intensity (a.u.)
AATCGGACCCATTTATTCGGCCCAATCTGGCCCATGCTCGCGGAGTCACCTAGTGCAG | 3470 fluorescence intensity (a.u.)
GTCAAGTCAACATGCAAGTGGTACATCGTGTATTCACATTCGGAGTCACCTAGTGCAG | 4900 fluorescence intensity (a.u.)
CTACAGCACCATGATTTATTATTTATTATATTGGTGCAATCGGAGTCACCTAGTGCAG | 13600 fluorescence intensity (a.u.)
TAAAGTTCAAAATCATGACTCGTGATTTAACATCAATGATCGGAGTCACCTAGTGCAG | 3310 fluorescence intensity (a.u.)
CAACGTCACTCTACAGAGCTAACGCCGTCAGCACATCCCACGGAGTCACCTAGTGCAG | 5910 fluorescence intensity (a.u.)
CGCGGCGCGCACACGCCATGCCGGCATGCCGTGGCATACCCGGAGTCACCTAGTGCAG | 3990 fluorescence intensity (a.u.)
GATGAGTCGCCGAATACCTCCCGGAGCGCCGCCGCCCGCCCGGAGTCACCTAGTGCAG | 21700 fluorescence intensity (a.u.)
TGTGGGGCCCACGTGGGTCCAACGCTGACTCAGCAGCTACCGGAGTCACCTAGTGCAG | 29300 fluorescence intensity (a.u.)
AAATATTTCCACAAACACACCATGCATGATATATGTTTTACGGAGTCACCTAGTGCAG | 15200 fluorescence intensity (a.u.)
CTCAAATCAACAGCATTTGAACCCGGCGTGTGCGACGTGTCGGAGTCACCTAGTGCAG | 3510 fluorescence intensity (a.u.)
CTTCAGGCCTCACTGCGTCGTACGTGTCGGCTCCAACTCCCGGAGTCACCTAGTGCAG | 8940 fluorescence intensity (a.u.)

Reprinted from the listing for reference:
Sequence | binding signal
ATTGGCTAGCTTGTACTCCAGCATGGATTATGCATGTGTTCGGAGTCACCTAGTGCAG | 3250 fluorescence intensity (a.u.)
CAGCAACCGAGGTGCCTTCGTCAGCTTCCAAAGAAGCTACCGGAGTCACCTAGTGCAG | 5030 fluorescence intensity (a.u.)
TTGGTTCTCTGTCACGTCAAGTGCAACGAACGGCACGTCTCGGAGTCACCTAGTGCAG | 4330 fluorescence intensity (a.u.)
CTATTTTCTCTTGTCCACGTCAGCAAAATAAGTGTTATATCGGAGTCACCTAGTGCAG | 16600 fluorescence intensity (a.u.)
CATACTCCTAGAAAATGACAAGTCAGCCTCTTGCAATCACCGGAGTCACCTAGTGCAG | 5230 fluorescence intensity (a.u.)
GTCCACATTAGTAATACGCGTCACACACACGAGGAAATTACGGAGTCACCTAGTGCAG | 4120 fluorescence intensity (a.u.)
CCTACACACTCGACAATTGCCAAGTCAGAAAGCAATATACCGGAGTCACCTAGTGCAG | 4200 fluorescence intensity (a.u.)
GTGAGCCCACATGTCATCCTTTATTCCTCCTCCCTCTCTCCGGAGTCACCTAGTGCAG | 3210 fluorescence intensity (a.u.)
AAGAATGCCATGTACACTACTCTTTCTGAGCTTGTGCAAGCGGAGTCACCTAGTGCAG | 4760 fluorescence intensity (a.u.)
TATTATCTGCTGGGTACTCTCTGGTCGCACCTGCGTGGCTCGGAGTCACCTAGTGCAG | 3540 fluorescence intensity (a.u.)
AAATCTGACCGACTGCCACCGTGCCGCCCGTGATGAACACCGGAGTCACCTAGTGCAG | 3720 fluorescence intensity (a.u.)
CCCTCCGTGGTATATATCCACGTCTCCCTTAAACGCAACCCGGAGTCACCTAGTGCAG | 4060 fluorescence intensity (a.u.)
CTACAATGAATTAAGGTGCAAACGTGGAGGATGAAACTAACGGAGTCACCTAGTGCAG | 4130 fluorescence intensity (a.u.)
AGACATTATTTATAACTACGCACGTGGGCAAGTACTTATCCGGAGTCACCTAGTGCAG | 4690 fluorescence intensity (a.u.)
ATTTATCCACGTCATCACGATTTACTCATGAGTACTTATGCGGAGTCACCTAGTGCAG | 17700 fluorescence intensity (a.u.)
AATCGGACCCATTTATTCGGCCCAATCTGGCCCATGCTCGCGGAGTCACCTAGTGCAG | 3470 fluorescence intensity (a.u.)
